Compound in this assay: Nc1nc2c(ncn2[C@@H]2O[C@H](COP(=O)(O)OP(=O)(O)OP(=O)(O)O)[C@@H](O)[C@H]2O)c(=O)[nH]1 [guanosine triphosphate]
The assay is described as follows: NP40-soluble protein abundance relative to vehicle (solubility fold change) (ratio); higher = more soluble protein in presence of GTP. The protocol: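 Solubility proteome profiling in Jurkat crude lysate. Lysate was treated with Mg-GTP (0.1-10 mM) for 10 min at room temperature and 3 min at 37 °C, then solubilised with 0.8% NP40 and benzonase, followed by ultracentrifugation. Proteins were quantified by TMT10 LC-MS/MS; the value is the NP40-soluble abundance relative to the NP40-processed vehicle, from 3 independent experiments.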

Protein sequences, listed by entry. Tags and fused reporters are not part of them. Lines headed by an entry give the natural chain unless they say otherwise; changes in a name come on top.
UniProt Q04323: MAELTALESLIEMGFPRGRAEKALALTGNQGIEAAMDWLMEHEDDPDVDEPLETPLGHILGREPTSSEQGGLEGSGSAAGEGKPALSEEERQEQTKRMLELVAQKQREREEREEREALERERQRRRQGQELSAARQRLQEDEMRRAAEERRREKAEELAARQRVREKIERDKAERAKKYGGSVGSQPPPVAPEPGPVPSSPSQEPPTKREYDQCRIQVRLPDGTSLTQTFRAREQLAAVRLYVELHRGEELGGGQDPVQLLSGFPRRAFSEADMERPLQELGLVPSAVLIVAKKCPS
UniProt P50579: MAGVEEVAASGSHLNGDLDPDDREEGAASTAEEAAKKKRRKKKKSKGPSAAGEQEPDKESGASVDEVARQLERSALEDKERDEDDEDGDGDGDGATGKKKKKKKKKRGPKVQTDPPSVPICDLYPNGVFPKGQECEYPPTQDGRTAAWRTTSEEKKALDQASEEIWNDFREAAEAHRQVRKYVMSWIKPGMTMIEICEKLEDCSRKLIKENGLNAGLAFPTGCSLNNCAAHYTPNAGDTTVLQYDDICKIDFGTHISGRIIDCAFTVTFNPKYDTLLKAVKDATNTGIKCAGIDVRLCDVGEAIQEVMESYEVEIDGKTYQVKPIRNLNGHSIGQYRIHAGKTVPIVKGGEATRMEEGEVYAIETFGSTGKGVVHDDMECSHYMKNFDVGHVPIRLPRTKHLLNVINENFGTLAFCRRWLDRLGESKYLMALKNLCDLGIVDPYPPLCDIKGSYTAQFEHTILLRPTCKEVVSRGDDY
UniProt Q9NUJ3: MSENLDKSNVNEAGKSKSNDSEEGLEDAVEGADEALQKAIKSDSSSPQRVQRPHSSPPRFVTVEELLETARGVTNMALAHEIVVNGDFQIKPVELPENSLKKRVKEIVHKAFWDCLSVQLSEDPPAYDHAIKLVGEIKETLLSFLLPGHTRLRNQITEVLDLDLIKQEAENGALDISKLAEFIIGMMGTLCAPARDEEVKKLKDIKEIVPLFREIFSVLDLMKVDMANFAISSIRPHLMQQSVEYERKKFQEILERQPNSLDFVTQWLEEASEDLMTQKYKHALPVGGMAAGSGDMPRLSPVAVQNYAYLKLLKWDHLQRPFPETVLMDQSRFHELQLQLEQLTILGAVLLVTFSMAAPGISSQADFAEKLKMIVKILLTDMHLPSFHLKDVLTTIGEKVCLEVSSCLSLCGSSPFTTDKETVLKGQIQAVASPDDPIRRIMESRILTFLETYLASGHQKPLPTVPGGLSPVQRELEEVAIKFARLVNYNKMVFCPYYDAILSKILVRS
UniProt P14635, whole entry: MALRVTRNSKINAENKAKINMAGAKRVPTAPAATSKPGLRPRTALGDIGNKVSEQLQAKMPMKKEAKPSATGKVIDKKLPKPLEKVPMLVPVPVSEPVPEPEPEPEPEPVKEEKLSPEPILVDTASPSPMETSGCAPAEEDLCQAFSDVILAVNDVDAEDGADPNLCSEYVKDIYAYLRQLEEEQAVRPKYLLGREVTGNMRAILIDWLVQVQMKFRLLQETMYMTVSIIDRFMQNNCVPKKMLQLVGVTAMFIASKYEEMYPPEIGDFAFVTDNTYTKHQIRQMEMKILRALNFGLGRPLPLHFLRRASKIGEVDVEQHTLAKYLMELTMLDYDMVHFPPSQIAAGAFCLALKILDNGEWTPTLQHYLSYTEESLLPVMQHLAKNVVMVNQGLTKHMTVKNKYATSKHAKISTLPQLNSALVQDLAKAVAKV
UniProt Q86VP6: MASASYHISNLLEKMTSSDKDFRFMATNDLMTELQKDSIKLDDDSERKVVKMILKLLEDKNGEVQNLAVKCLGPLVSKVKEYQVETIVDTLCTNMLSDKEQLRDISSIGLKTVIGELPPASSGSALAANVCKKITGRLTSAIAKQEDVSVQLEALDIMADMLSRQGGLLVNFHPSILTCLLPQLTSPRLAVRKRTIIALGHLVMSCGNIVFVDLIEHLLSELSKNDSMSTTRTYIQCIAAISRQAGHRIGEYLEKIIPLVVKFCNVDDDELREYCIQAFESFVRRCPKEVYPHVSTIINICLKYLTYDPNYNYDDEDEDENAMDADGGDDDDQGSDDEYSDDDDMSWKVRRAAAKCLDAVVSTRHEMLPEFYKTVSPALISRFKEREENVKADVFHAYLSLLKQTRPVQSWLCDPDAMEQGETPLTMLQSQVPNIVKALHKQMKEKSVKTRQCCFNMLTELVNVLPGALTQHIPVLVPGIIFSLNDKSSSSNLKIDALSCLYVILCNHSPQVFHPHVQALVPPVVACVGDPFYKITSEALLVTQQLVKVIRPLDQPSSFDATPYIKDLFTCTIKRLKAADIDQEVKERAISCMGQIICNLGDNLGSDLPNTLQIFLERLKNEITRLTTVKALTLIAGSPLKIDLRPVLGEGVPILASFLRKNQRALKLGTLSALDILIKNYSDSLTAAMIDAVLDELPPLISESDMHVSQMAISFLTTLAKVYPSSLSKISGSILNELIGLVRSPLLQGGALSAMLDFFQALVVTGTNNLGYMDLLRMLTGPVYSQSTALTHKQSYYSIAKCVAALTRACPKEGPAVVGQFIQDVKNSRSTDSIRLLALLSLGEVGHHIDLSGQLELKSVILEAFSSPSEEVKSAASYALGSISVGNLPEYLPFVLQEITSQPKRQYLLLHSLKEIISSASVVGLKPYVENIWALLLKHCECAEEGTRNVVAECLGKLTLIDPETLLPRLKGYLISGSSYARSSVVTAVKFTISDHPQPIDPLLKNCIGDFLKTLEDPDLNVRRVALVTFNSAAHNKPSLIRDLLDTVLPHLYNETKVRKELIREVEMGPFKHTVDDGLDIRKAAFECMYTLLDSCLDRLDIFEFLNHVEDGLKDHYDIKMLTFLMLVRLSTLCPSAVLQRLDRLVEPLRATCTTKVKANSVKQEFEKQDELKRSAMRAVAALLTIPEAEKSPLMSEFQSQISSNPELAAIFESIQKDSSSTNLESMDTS

± gives the standard deviation of the averaged measurements. This is one part of the list.

Regarding “E9PJ81 and related entries (UniProt Q04323)”, the NP40-soluble protein abundance is, setting by setting: (concentration: 0.1mM) 0.939 ± 0.021; (concentration: 0.5mM) 0.906 ± 0.055; (concentration: 1mM) 0.972 ± 0.014; (concentration: 2mM) 0.953 ± 0.043; (concentration: 4mM) 0.927 ± 0.04; (concentration: 6mM) 0.924 ± 0.04. Also, the NP40-soluble protein abundance was determined as 0.894 ± 0.073 (concentration: 8mM) and 0.985 ± 0.074 (concentration: 10mM).

In the case of “F8VQZ7 and related entries (UniProt P50579)”, the NP40-soluble protein abundance was determined as 1.1 ± 0.013 (concentration: 0.1mM); 1.05 ± 0.03 (concentration: 0.5mM); 1 ± 0.022 (concentration: 1mM); 0.988 ± 0.055 (concentration: 2mM); 1.04 ± 0.037 (concentration: 4mM); 1.01 ± 0.011 (concentration: 6mM). In addition, the NP40-soluble protein abundance is, setting by setting: (concentration: 8mM) 1.04 ± 0.099; (concentration: 10mM) 0.97 ± 0.046.

In the case of “E9PJ55 and related entries (UniProt Q9NUJ3)”, the NP40-soluble protein abundance is, setting by setting: (concentration: 0.1mM) 1.07 ± 0.067; (concentration: 0.5mM) 1.08 ± 0.073; (concentration: 1mM) 1.08 ± 0.064; (concentration: 2mM) 1.03 ± 0.013; (concentration: 4mM) 1.06 ± 0.052; (concentration: 6mM) 1.02 ± 0.044. The NP40-soluble protein abundance came to 0.977 ± 0.11 (concentration: 8mM) and 0.958 ± 0.13 (concentration: 10mM).

For “E9PC90 and related entries (UniProt P14635)”, the NP40-soluble protein abundance is, setting by setting: (concentration: 0.1mM) 0.944 ± 0.031; (concentration: 0.5mM) 0.911 ± 0.058; (concentration: 1mM) 0.996 ± 0.056; (concentration: 2mM) 0.984 ± 0.086; (concentration: 4mM) 0.971 ± 0.068; (concentration: 6mM) 0.991 ± 0.1. Moreover, the NP40-soluble protein abundance is, setting by setting: (concentration: 8mM) 0.996 ± 0.076; (concentration: 10mM) 1.03 ± 0.067.

As for “F5H6I6 and related entries (UniProt Q86VP6)”, the NP40-soluble protein abundance is, setting by setting: (concentration: 0.1mM) 0.978 ± 0.027; (concentration: 0.5mM) 0.983 ± 0.045; (concentration: 1mM) 0.926 ± 0.035; (concentration: 2mM) 0.932 ± 0.067; (concentration: 4mM) 0.934 ± 0.038; (concentration: 6mM) 0.931 ± 0.049. For the same target, the NP40-soluble protein abundance runs as follows: (concentration: 8mM) 0.902 ± 0.021; (concentration: 10mM) 0.905 ± 0.025.

Values taken from the supplement of paper PMC6411743.
